The supplement of paper PMC12823440, “Inhibitors supercharge kinase turnover through native proteolytic circuits” (Nature, 2025)
Counter-ions that a name gives are not always drawn. The list shows a part of the results. The calls rarely recur for the same compound in another form.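 Kinases, fused to nanoluciferase, were expressed in K562 cells; luminescence was measured every 4 h from 2 to 18 h as percent of control (DMSO = 100%, positive control = 0%). A time point is decreased if signal falls significantly (2 sigma). Hits were called by the authors by a rule that is not shown; the count of time points alone does not decide it.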

Sequences of proteins named here, by UniProt entry; tags and fusion partners are left off. A change or cut given only in a name is not applied to a line headed by its entry.
UniProt O14965: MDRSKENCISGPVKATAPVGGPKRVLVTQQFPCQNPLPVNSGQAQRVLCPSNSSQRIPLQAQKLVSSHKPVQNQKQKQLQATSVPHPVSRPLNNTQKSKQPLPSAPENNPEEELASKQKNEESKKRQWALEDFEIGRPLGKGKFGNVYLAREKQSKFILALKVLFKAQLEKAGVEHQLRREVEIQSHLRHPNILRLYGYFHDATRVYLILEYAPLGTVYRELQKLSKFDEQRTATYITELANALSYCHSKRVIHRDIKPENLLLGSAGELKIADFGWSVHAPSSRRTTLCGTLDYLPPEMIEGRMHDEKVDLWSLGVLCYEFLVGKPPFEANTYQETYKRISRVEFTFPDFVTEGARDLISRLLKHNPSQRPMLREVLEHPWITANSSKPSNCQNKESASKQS
UniProt Q96GD4, whole entry: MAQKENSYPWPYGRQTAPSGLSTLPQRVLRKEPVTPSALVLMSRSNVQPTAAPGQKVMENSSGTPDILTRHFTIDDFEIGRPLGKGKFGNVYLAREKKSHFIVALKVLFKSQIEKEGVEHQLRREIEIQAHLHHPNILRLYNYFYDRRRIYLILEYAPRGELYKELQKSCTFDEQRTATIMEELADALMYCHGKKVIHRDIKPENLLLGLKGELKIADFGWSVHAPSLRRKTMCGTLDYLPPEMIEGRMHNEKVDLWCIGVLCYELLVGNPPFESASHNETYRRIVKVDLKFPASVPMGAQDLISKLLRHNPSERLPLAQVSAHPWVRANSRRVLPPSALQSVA
UniProt Q9UQB9: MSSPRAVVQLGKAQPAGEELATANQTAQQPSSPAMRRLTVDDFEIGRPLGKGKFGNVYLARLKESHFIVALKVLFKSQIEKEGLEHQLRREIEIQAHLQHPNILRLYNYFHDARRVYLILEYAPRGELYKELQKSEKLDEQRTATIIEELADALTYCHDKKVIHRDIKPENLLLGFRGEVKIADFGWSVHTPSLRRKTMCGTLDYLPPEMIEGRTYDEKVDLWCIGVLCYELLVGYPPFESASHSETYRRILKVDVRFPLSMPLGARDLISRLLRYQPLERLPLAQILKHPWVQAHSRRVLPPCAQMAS
UniProt P51451: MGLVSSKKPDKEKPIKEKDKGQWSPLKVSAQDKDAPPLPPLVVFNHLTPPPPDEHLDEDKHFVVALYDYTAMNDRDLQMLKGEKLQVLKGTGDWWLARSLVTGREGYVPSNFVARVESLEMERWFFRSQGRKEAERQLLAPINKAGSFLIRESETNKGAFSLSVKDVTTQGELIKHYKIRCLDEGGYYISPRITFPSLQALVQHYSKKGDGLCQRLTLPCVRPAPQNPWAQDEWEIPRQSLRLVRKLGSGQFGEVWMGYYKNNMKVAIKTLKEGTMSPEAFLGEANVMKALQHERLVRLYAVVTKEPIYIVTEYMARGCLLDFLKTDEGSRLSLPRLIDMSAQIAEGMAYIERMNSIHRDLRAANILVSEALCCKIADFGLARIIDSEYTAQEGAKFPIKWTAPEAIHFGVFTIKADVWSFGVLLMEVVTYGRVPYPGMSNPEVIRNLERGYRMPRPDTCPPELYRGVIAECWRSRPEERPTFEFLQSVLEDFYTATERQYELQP
UniProt P51813: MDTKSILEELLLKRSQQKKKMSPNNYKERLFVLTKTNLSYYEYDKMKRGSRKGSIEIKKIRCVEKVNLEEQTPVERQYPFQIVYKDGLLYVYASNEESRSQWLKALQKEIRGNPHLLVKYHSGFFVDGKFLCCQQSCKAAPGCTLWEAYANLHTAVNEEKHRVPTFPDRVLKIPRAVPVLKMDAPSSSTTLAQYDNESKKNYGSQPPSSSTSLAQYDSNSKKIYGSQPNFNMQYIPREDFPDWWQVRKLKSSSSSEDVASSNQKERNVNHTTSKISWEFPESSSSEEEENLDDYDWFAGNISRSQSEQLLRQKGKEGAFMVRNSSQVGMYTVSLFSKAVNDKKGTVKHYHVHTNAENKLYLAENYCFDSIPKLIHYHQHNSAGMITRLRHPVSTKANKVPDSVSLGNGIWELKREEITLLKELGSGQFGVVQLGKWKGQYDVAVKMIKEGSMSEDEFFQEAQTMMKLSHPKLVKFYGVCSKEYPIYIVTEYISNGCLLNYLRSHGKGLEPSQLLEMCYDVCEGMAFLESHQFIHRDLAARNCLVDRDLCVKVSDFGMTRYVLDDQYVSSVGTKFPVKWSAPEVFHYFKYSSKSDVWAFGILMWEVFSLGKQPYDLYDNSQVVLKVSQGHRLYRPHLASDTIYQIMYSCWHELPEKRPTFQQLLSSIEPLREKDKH
UniProt Q06187: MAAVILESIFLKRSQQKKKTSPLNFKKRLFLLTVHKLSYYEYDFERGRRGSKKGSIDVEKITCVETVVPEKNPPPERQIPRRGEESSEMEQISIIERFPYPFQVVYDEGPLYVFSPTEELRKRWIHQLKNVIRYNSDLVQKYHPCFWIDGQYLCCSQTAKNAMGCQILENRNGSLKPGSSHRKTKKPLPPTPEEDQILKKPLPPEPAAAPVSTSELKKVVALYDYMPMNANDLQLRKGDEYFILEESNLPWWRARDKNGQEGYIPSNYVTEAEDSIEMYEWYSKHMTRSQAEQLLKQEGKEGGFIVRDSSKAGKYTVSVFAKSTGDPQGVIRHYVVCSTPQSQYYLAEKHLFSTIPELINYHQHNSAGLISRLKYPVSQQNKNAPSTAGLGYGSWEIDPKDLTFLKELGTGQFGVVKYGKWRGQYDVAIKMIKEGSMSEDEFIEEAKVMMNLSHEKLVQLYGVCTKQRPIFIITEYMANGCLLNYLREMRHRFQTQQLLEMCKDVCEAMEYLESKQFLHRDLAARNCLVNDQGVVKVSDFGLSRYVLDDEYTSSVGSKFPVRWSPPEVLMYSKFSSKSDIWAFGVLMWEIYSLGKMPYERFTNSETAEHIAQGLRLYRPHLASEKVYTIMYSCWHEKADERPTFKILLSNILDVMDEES
UniProt Q13555: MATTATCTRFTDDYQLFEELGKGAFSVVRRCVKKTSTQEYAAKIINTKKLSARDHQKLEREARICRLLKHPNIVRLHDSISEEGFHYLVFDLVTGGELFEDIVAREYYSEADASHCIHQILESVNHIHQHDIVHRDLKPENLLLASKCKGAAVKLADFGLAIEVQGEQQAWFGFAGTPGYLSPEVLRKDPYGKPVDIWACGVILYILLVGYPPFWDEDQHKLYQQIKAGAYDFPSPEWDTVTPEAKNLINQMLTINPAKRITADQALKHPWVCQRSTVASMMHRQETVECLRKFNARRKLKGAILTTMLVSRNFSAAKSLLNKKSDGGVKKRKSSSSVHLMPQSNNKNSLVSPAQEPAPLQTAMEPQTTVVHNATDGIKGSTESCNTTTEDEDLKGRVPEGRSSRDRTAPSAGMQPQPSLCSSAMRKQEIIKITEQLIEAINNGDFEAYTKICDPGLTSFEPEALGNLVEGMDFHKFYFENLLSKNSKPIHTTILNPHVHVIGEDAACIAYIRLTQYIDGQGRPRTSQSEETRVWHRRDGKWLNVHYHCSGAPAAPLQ
UniProt Q00526: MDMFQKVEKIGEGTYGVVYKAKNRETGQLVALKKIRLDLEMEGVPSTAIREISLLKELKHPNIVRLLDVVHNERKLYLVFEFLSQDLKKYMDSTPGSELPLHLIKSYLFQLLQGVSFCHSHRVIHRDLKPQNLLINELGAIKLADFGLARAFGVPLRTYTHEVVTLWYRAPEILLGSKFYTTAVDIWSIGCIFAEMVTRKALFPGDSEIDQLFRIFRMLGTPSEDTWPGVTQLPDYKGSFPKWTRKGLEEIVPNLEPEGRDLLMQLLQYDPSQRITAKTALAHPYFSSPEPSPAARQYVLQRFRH
UniProt Q00535, whole entry, looked up: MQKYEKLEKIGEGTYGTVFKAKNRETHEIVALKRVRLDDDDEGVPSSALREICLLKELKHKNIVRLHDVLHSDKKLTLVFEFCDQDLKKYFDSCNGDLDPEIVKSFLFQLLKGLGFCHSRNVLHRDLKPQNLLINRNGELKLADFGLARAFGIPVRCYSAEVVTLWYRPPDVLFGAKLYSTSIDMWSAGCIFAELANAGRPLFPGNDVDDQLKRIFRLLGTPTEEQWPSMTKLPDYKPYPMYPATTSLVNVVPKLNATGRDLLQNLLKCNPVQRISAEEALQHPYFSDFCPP
UniProt Q00534, whole entry: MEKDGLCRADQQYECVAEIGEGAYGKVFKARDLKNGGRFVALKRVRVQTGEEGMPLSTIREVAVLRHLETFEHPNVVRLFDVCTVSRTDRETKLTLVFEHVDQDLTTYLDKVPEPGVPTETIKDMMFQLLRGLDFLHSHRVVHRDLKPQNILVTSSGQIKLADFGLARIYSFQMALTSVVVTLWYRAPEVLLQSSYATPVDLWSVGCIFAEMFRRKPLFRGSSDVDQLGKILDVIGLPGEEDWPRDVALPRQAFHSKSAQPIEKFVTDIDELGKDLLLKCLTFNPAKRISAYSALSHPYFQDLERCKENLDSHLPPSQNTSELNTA
UniProt O96017, whole entry: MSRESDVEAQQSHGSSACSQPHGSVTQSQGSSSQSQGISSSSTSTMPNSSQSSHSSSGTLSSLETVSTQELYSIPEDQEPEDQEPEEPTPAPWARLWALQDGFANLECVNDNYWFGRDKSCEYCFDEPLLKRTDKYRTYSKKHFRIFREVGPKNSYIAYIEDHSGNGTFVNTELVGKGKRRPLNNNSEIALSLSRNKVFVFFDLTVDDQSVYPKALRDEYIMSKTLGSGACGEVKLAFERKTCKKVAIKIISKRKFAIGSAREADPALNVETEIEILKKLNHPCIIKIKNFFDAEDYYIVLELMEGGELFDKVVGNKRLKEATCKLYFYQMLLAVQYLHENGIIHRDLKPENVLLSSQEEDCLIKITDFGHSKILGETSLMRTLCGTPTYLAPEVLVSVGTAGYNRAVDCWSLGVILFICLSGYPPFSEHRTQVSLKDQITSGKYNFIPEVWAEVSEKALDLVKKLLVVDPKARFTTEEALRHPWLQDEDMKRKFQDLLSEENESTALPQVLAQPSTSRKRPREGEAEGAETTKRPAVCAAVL
UniProt P07333, whole entry: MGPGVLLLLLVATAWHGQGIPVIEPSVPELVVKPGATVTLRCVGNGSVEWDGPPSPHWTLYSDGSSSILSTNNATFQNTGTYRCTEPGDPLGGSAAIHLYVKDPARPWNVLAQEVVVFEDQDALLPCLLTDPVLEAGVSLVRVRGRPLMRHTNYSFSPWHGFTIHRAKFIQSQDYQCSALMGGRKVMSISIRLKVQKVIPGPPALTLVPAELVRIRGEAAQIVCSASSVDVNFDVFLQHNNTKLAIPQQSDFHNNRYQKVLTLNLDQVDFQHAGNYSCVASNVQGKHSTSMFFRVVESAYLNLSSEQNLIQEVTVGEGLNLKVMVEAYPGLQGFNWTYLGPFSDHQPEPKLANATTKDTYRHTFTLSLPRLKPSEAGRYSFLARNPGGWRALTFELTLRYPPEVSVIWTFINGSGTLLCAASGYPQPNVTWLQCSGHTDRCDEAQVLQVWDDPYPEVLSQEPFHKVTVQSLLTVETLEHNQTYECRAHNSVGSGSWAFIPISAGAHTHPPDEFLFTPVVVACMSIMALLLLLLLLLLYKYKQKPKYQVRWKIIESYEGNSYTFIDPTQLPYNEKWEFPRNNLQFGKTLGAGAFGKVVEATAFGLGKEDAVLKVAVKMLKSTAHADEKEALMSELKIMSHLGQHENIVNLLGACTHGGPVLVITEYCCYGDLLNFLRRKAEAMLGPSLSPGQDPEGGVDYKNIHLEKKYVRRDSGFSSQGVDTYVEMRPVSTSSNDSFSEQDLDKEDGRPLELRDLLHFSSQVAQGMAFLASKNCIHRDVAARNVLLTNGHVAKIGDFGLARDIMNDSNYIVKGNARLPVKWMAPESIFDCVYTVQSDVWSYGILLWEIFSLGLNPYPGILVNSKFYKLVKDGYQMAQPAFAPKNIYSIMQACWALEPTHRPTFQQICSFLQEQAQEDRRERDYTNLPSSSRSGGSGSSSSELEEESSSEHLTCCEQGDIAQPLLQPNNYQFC
UniProt P41240: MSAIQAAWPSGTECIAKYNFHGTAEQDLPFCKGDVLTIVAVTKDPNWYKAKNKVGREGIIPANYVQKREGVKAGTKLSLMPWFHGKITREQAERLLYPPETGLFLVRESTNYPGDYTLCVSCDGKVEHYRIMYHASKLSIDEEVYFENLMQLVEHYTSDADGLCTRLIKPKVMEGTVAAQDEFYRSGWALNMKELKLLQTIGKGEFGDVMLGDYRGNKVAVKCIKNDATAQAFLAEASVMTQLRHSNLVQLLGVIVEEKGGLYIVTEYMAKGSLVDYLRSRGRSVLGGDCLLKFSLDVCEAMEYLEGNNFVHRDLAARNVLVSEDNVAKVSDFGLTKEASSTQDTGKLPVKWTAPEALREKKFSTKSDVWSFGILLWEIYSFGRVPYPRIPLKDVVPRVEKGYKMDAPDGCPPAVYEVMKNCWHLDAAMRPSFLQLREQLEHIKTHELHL

Columns and labels:
Assay in all cases: number of time points (of 5) at which kinase-Nluc abundance scored as decreased, DMSO-normalised (count); higher = more persistent destabilization
Conditions in all cases: K562; 2-18 h
[1] = target: ALK (UniProt Q9UM73)
[2] = target: ARAF (UniProt P10398)
[3] = target: AURKA (UniProt O14965)
[4] = target: AURKB (UniProt Q96GD4)
[5] = target: AURKC (UniProt Q9UQB9)
[6] = target: BLK (UniProt P51451)
[7] = target: BMX (UniProt P51813)
[8] = target: BRAF (UniProt P15056)
[9] = test system: BRAF_V600E
[10] = target: BTK (UniProt Q06187)
[11] = target: CAMK2A (UniProt Q9UQM7)
[12] = target: CAMK2G (UniProt Q13555)
[13] = target: CDK10 (UniProt Q15131)
[14] = target: CDK2 (UniProt P24941)
[15] = target: CDK3 (UniProt Q00526)
[16] = target: CDK5 (UniProt Q00535)
[17] = target: CDK6 (UniProt Q00534)
[18] = target: CHEK2 (UniProt O96017)
[19] = target: CSF1R (UniProt P07333)
[20] = target: CSK (UniProt P41240)

Measured: number of time points

O=S(=O)(NCCCN1c2ccccc2CCc2ccc(Cl)cc21)c1ccc(OC(F)(F)F)cc1 (2.5 µM)
0: all assays above

Cc1ccccc1-n1c([C@H](C)Nc2nc(N)nc3nc[nH]c23)nc2cccc(C)c2c1=O [CAL-130 (Hydrochloride)] (10 µM)
0: all assays above

c1ccc(-c2[nH]ncc2-c2ccnc3ccccc23)nc1 (10 µM)
0: all assays above

COCCNc1nc2ccc(C#CC3(O)CCCCC3)cc2n1-c1ccnc(N)n1 (10 µM)
0: all assays above

COc1ccccc1-c1cc(Nc2cccc(CS(N)(=O)=O)c2)ncn1 (10 µM)
1: [18]
3: [3]
2: [1] | [7] | [9]
0: all other assays above

Cn1cc(-c2cnn3c(N)c(Br)c([C@@H]4CCCNC4)nc23)cn1 (2.5 µM)
2: [1]
1: [7] | [8] | [9] | [14] | [19]
0: all other assays above

CCN1CCN(Cc2ccc(-c3cc4c(N[C@H](C)c5ccccc5)ncnc4[nH]3)cc2)CC1 (2.5 µM)
1: [1] | [4] | [6] | [7] | [8] | [19]
3: [3]
2: [12] | [17] | [18]
4: [9]
0: all other assays above

O=C1NC(=O)/C(=C/c2ccc3nccnc3c2)S1 (10 µM)
1: [16]
0: all other assays above

CC(=O)c1c(C)cc2cccc(O)c2c1O [Nepodin] (10 µM)
0: all assays above

Cn1cc(-c2ccc3c(c2)CCN3C(=O)Cc2cccc(C(F)(F)F)c2)c2c(N)ncnc21 (2.5 µM)
0: all assays above

Cn1cnc(Cn2ccc3ccc(CNCc4[nH]c5ccccc5c4[C@H]4NC(=O)c5ccc(O)cc54)cc32)c1 (10 µM)
0: all assays above

Cc1nc2sccn2c(=O)c1CCN1CCC(=C(c2ccccc2)c2ccc(F)cc2)CC1 (10 µM)
0: all assays above

NC(=O)c1ccc2[nH]ccc2c1 (10 µM)
0: all assays above

Cc1ccc2cc(-c3c(C)ccc(C(=O)c4c(-c5ccccc5)n(C)n(-c5ccccc5)c4=O)c3N)ccc2n1 (2.5 µM)
0: all assays above

NCCNS(=O)(=O)c1cccc2c(Cl)cccc12 [A-3 (hydrochloride)] (10 µM)
0: all assays above

Oc1cc2c(cc1O)C(Cc1cccc3ccccc13)NCC2 (stereo not given) (10 µM)
0: all assays above

O=C(CSC1=NCCN1)NC1CCCCCC1 [ICCB-19 (hydrochloride)] (2.5 µM)
0: all assays above

Cc1ccc(OCCSc2ncccn2)c(Br)c1 [ZLN024 (hydrochloride)] (10 µM)
0: all assays above

CN1C(=O)N[C@H](Cc2c[nH]c3c(Cl)cccc23)C1=O [Necrostatin 2] (10 µM)
0: all assays above

COc1cc2ncnc(Nc3ccc(Cl)cc3F)c2cc1OC (10 µM)
1: [9]
0: all other assays above

CS(=O)(=O)Nc1cc(-c2ccc3ncnc(Nc4ccc(F)c(Cl)c4)c3c2)cnc1Cl (2.5 µM)
2: [7] | [9]
0: all other assays above

COc1cc(OC2CCN(C)CC2)ccc1Nc1ncc2c(n1)n(C1CCCC1)c(=O)n2C (10 µM)
0: all assays above

O=C(O)CCC(=O)Nc1ccc(Br)cn1 [Bikinin] (10 µM)
0: all assays above

O=C(NOCC(O)CO)c1cc(Br)c(F)c(F)c1Nc1ccc(I)cc1F (stereo not given) (2.5 µM)
0: all assays above

Sorted by length of the SMILES (rising): some entries from above.
O=C(O)CCC(=O)Nc1ccc(Br)cn1 [Bikinin] (10 µM)
0: all assays above

O=C(NOCC(O)CO)c1cc(Br)c(F)c(F)c1Nc1ccc(I)cc1F (stereo not given) (2.5 µM)
0: all assays above

COc1cc(OC2CCN(C)CC2)ccc1Nc1ncc2c(n1)n(C1CCCC1)c(=O)n2C (10 µM)
0: all assays above

Next structures:

Cc1ccc(CNc2ncnc3ccc(-c4ccc(CO)o4)cc23)o1 (10 µM)
0: all assays above

N#CCC1CCN(c2nc(Nc3ccc(N4CCC(O)CC4)cc3)c3c(=O)[nH]ncc3n2)CC1 [Gusacitinib] (10 µM)
2: [7]
0: all other assays above

C[C@@H]1CC[C@@H](Nc2nc(NC(C)(C)C)ncc2C(N)=O)C[C@H]1O (10 µM)
0: all assays above

O=C1NC(=O)/C(=C\c2cccc(C(F)(F)F)c2)S1 (2.5 µM)
0: all assays above

CNC(=O)c1ccc(C)c(-n2c(C)cc(OCc3ccc(F)cc3F)c(Br)c2=O)c1 (10 µM)
0: all assays above

CCN1CCC(n2cc(CNc3cc(Cl)c4ncc(C#N)c(Nc5ccc(F)c(Cl)c5)c4c3)nn2)CC1 [Cot inhibitor-2] (2.5 µM)
0: all assays above

Nc1ncnc2c1c(-c1ccc(Oc3ccccc3)cc1)nn2C1CCCC1 (2.5 µM)
0: all assays above

COc1ccc(OC)c(C2C(C#N)=C(N)Oc3n[nH]c(-c4ccc5ccccc5c4)c32)c1 (stereo not given) (10 µM)
0: all assays above

C[C@@H](c1ccc(-c2ccccc2)c(F)c1)c1cc(NC(=N)N2CCOCC2)on1 [Rimacalib] (10 µM)
0: all assays above

O=C(NCCN1CCCC1)c1cc(-c2ccc(CN3CCOCC3)cc2)nc2ccc(F)cc12 (10 µM)
0: all assays above

Cc1[nH]c(/C=C2\C(=O)Nc3ccc(F)cc32)c(C)c1C(=O)N[C@H]1CCN(C(=O)N(C)C)C1 [Vorolanib] (10 µM)
0: all assays above

O=c1[nH]c(=O)n([C@@H]2O[C@H](CO)[C@@H](O)[C@@H]2O)cc1/C=C/Br [Sorivudine] (10 µM)
0: all assays above

O=C(NCCN1CCOCC1)c1cc2c(Oc3ccc(NC(=O)C4(C(=O)Nc5ccc(F)cc5)CC4)cc3)ccnc2[nH]1 [Tyrosine kinase inhibitor] (10 µM)
0: all assays above

CCOc1ccc2cc(-c3nn(CC4CCN(C)CC4)c4ncnc(N)c34)ccc2n1 (10 µM)
0: all assays above

O=c1cc(CN2CCOCC2)occ1OCCCCCSc1ccnc2cc(C(F)(F)F)ccc12 (10 µM)
0: all assays above

C[C@H](c1ccnc(Nc2nc3ccc(-c4cc(N(C)C)ncn4)cc3[nH]2)c1)N1CCN(C(=O)CC(F)(F)F)CC1 (2.5 µM)
0: all assays above

Oc1cc(O)c2cc(O)c(-c3cc(O)c(O)c(O)c3)[o+]c2c1 [Delphinidin (chloride)] (10 µM)
3: [8]
1: [3]
2: [6] | [18]
0: all other assays above

CN1CCN(c2cccc(Nc3nc4c(-c5ccc(S(C)(=O)=O)cc5)cccn4n3)c2)CC1 (10 µM)
0: all assays above

C[C@]1(O)CCN(c2nc(N3C[C@H](O)[C@@H](O)C3)cc(C(F)(F)F)c2C#N)C1 (10 µM)
0: all assays above

Nc1nc(F)nc2c1ncn2[C@@H]1O[C@H](CO)[C@@H](O)[C@@H]1O [Fludarabine] (10 µM)
1: [9]
0: all other assays above

Cc1c(-c2c(F)cc(C(N)=O)c3[nH]c4c(c23)CC[C@H](C(C)(C)O)C4)cccc1-n1c(=O)c2cccc(F)c2n(C)c1=O (2.5 µM)
0: all assays above

COc1ccc(-c2ccc3c(N4CCOCC4)nc(N4C[C@@H](C)O[C@@H](C)C4)nc3n2)cc1CO (2.5 µM)
0: all assays above

Cc1cc(CN2CCN(c3c(Br)cnc4nc(-c5ccc(N6CCN(C)CC6)cc5)[nH]c34)CC2)no1 (2.5 µM)
0: all assays above

NC(=O)c1nnc(N[C@@H]2CCCC[C@@H]2N)nc1Nc1cccc2cc[nH]c12 (10 µM)
1: [6] | [7]
0: all other assays above

CCS(=O)(=O)Nc1ccc2[nH]c(O)c(C(=Nc3ccc(CN4CCCCC4)cc3)c3ccccc3)c2c1 [Hesperadin] (2.5 µM)
4: [4]
1: [1] | [8]
3: [3] | [7] | [9]
2: [6] | [18]
0: all other assays above
